# Source: patent US7476386B1 (priority 1997, dated 2009)
# Some entries share one result that the patent states for a list of compounds. Ends that are not written are not given here. * marks the point of attachment. Palmitoyl = CCCCCCCCCCCCCCCC(=O)*
# Test: Solubility of the lipopeptides in pure water
# Assay type: physicochemical
row,Substance,concentration at which the peptide could be dissolved in pure water
1,EWRFDSRLAFHHVARELHPEYFKNK(Palmitoyl)-NH2 [NEF 182],up to 5 mg/ml
2,TQGYFPDWQNYTPGPGVRYPLTFGWCYKLVPK(Palmitoyl)-NH2 [NEF 117],up to 5 mg/ml
3,TRPNNNTRKSIHIGPGRAFYATGEIIGDIRQAHK(Palmitoyl)-NH2 [ENV],up to 5 mg/ml
